Assay results: PubChem BioAssay AID256 (DTP/NCI, 2004)
The list shows only some results of the screen, not a fair sample: it is rich in T/C values a quarter to a half above the control, in often repeated tests (any T/C) and in doses without a T/C. Other doses and runs of a compound stand elsewhere. T/C is the treated group as % of the vehicle group. Some entries give survivors of the animals treated and no T/C: the source files T/C as zero there, which appears to mark a toxic dose or a test without result, not a measured value. Some survivor counts are full or nearly so, which does not show that the dose was tolerated: the source hardly ever lists a survival T/C far under the control, and the zero likely stands for such cases as well. Counts of survivors are from the toxicity check (mostly the fifth day) where no day follows; animals may have died later. Schedules are NCI's codes, taken here to give the interval after Q, in days (D) or hours (H), and the number of doses after X. Some entries hold several experiments; their values stand side by side, smallest first. Brackets with × say how often a value occurs here. Some molecules as drawn cover several salts, stereoisomers or complexes of the source; a dose is that of the sample tested. Where survival is the endpoint, the PubChem record calls one and a half times the control and up active, and a quarter to a half above the control has no call in these data; cut-offs in other NCI protocols can differ. Some T/C values carry the count of animals alive at the toxicity check (mostly the fifth day); without a count, all were alive then.

Test system: CD2F1 mice, L1210 leukemia ip, survival T/C
Test: NCI In Vivo Anticancer Drug Screen. Data for tumor model L1210 Leukemia (intraperitoneal) in CD2F1 (CDF1) mice
Settings: higher T/C = longer survival
In short: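 Ratio T/C, where T is the treated-group value and C the vehicle-dosed control value, from mice implanted with a transplantable tumor.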

[1] = T/C endpoint: median survival time, dose: 6.4 mg/kg/injection, schedule: Q04DX003 (ip), vehicle: water
[2] = T/C endpoint: mean survival time, dose: 400.0 mg/kg/injection, schedule: Q01DX009 (ip), vehicle: saline with Tween-80
[3] = T/C endpoint: mean survival time, dose: 400.0 mg/kg/injection, schedule: Q04DX002 (ip), vehicle: saline with Tween-80
[4] = T/C endpoint: mean survival time, dose: 200.0 mg/kg/injection, schedule: Q04DX003 (ip), vehicle: saline with Tween-80
[5] = T/C endpoint: mean survival time, dose: 400.0 mg/kg/injection, schedule: Q04DX003 (ip), vehicle: saline with Tween-80
[6] = T/C endpoint: mean survival time, dose: 150.0 mg/kg/injection, schedule: Q01DX001 (ip), vehicle: saline
[7] = T/C endpoint: mean survival time, dose: 300.0 mg/kg/injection, schedule: Q01DX001 (ip), vehicle: saline
[8] = T/C endpoint: mean survival time, dose: 200.0 mg/kg/injection, schedule: Q01DX009 (ip), vehicle: saline with Tween-80
[9] = T/C endpoint: mean survival time, dose: 100.0 mg/kg/injection, schedule: Q01DX009 (ip), vehicle: saline with Tween-80
[10] = T/C endpoint: mean survival time, dose: 50.0 mg/kg/injection, schedule: Q01DX009 (ip), vehicle: saline with Tween-80

SMILES: CC(C)(C[NH-])C[NH-].[Cl][Pt+2][Cl]
- T/C (T/C endpoint: median survival time, dose: 0.4 mg/kg/injection, schedule: Q04DX003 (ip), vehicle: water, evaluated on day 30): 120, 121, 122, 127 % of control
- T/C (T/C endpoint: median survival time, dose: 0.4 mg/kg/injection, schedule: Q04DX003 (ip), vehicle: water, evaluated on day 60): 126, 130, 136 % of control
- T/C (T/C endpoint: median survival time, dose: 0.8 mg/kg/injection, schedule: Q04DX003 (ip), vehicle: water, evaluated on day 30): 132, 142, 160, 205 % of control
- T/C (T/C endpoint: median survival time, dose: 0.8 mg/kg/injection, schedule: Q04DX003 (ip), vehicle: water, evaluated on day 60): 139, 142, 150 % of control
- T/C (T/C endpoint: median survival time, dose: 1.6 mg/kg/injection, schedule: Q04DX003 (ip), vehicle: water, evaluated on day 30): 158, 162, 264, 361 % of control
- T/C (T/C endpoint: median survival time, dose: 1.6 mg/kg/injection, schedule: Q04DX003 (ip), vehicle: water, evaluated on day 60): 170, 195, 204 % of control
- survivor count (T/C endpoint: median survival time, dose: 3.12 mg/kg/injection, schedule: Q04DX003 (ip), vehicle: distilled water + Tween-80): 6 of 6
- T/C (T/C endpoint: median survival time, dose: 3.2 mg/kg/injection, schedule: Q04DX003 (ip), vehicle: water, evaluated on day 30): 138 and 167 % of control
- T/C (T/C endpoint: median survival time, dose: 3.2 mg/kg/injection, schedule: Q04DX003 (ip), vehicle: water, evaluated on day 60): 191, 201, 228 % of control
- survivor count (T/C endpoint: median survival time, dose: 3.2 mg/kg/injection, schedule: Q04DX003 (ip), vehicle: water): 5 of 6 and 10 of 10
- survivor count (T/C endpoint: median survival time, dose: 6.25 mg/kg/injection, schedule: Q04DX003 (ip), vehicle: distilled water + Tween-80): 4 of 6
- T/C [1]: 104 % of control
- survivor count [1]: 5 of 6, 10 of 10 (2×), 6 of 6
- survivor count (T/C endpoint: median survival time, dose: 12.5 mg/kg/injection, schedule: Q04DX003 (ip), vehicle: distilled water + Tween-80): 0 of 6
- survivor count (T/C endpoint: median survival time, dose: 25.0 mg/kg/injection, schedule: Q04DX003 (ip), vehicle: distilled water + Tween-80): 0 of 6
- survivor count (T/C endpoint: median survival time, dose: 50.0 mg/kg/injection, schedule: Q04DX003 (ip), vehicle: distilled water + Tween-80): 0 of 6
- survivor count (T/C endpoint: median survival time, dose: 100.0 mg/kg/injection, schedule: Q04DX003 (ip), vehicle: distilled water + Tween-80): 0 of 6
- survivor count (T/C endpoint: median survival time, dose: 200.0 mg/kg/injection, schedule: Q04DX003 (ip), vehicle: distilled water + Tween-80): 0 of 6

SMILES: CCN(CC)c1cc(Nc2c3ccc(Cl)cc3nc3cc(Cl)ccc23)ccc1O
- survivor count [2]: 0 of 6

SMILES: Nc1ccc(-n2nc3ccc4ccccc4c3n2)cc1
- survivor count (T/C endpoint: mean survival time, dose: 100.0 mg/kg/injection, schedule: Q04DX002 (ip), vehicle: saline with Tween-80): 2 of 3
- survivor count (T/C endpoint: mean survival time, dose: 200.0 mg/kg/injection, schedule: Q04DX002 (ip), vehicle: saline with Tween-80): 0 of 3
- survivor count [3]: 0 of 3

SMILES: C[n+]1ccccc1C#N
- survivor count (T/C endpoint: mean survival time, dose: 100.0 mg/kg/injection, schedule: Q01DX009 (ip), vehicle: saline sonified): 3 of 6
- survivor count [4]: 1 of 6
- survivor count [5]: 0 of 6

SMILES: C=C1C(=O)OC2CC(C)C3CC(O)OC(O)C3(C)CC12 (stereo not drawn)
- survivor count (T/C endpoint: mean survival time, dose: 25.0 mg/kg/injection, schedule: Q01DX005 (ip), vehicle: water): 3 of 6

SMILES: CO[C@]12[C@@H](COC(N)=O)C3=C(C(=O)C(C)=C(NCc4ccco4)C3=O)N1C[C@@H]1[C@H]2N1C (stereo partly drawn)
- T/C (T/C endpoint: mean survival time, dose: 12.0 mg/kg/injection, schedule: Q01DX001 (ip), vehicle: distilled water + Tween-80): 125 % of control
- T/C (T/C endpoint: mean survival time, dose: 24.0 mg/kg/injection, schedule: Q01DX001 (ip), vehicle: distilled water + Tween-80): 133 and 136 % of control
- T/C (T/C endpoint: mean survival time, dose: 36.0 mg/kg/injection, schedule: Q01DX001 (ip), vehicle: distilled water + Tween-80): 127 % of control

SMILES: COc1ccc2c(c1O)CNCC2c1ccc(O)c(C)c1 (stereo not drawn)
- survivor count [6]: 3 of 6
- survivor count [7]: 1 of 6

SMILES: CC(=O)C1=C(O)C2(O)C(=O)c3c(c(C)c4ccc(C)c(O)c4c3O)CC2C(N)C1=O (stereo not drawn)
- survivor count (T/C endpoint: mean survival time, dose: 120.0 mg/kg/injection, schedule: Q01DX009 (ip), vehicle: saline + alcohol): 0 of 10 and 0 of 6

SMILES: Cc1cccc(N=NN(C)C)c1
- survivor count (T/C endpoint: mean survival time, dose: 100.0 mg/kg/injection, schedule: Q01DX009 (ip), vehicle: Klucel (hydroxypropylcellulose) (HPC)): 1 of 6
- survivor count [6]: 3 of 6
- survivor count [7]: 1 of 6

SMILES: NC1=NC(=O)N2CC12 (stereo not drawn)
- T/C (T/C endpoint: mean survival time, dose: 100.0 mg/kg/injection, schedule: Q01DX009 (ip), vehicle: other): 130 % of control
- T/C (T/C endpoint: mean survival time, dose: 100.0 mg/kg/injection, schedule: Q01DX009 (ip), vehicle: saline): 128 and 135 % of control
- T/C (T/C endpoint: mean survival time, dose: 200.0 mg/kg/injection, schedule: Q01DX009 (ip), vehicle: other): 146 % of control
- survivor count (T/C endpoint: mean survival time, dose: 400.0 mg/kg/injection, schedule: Q01DX009 (ip), vehicle: other): 4 of 10
- survivor count (T/C endpoint: mean survival time, dose: 400.0 mg/kg/injection, schedule: Q01DX009 (ip), vehicle: saline): 0 of 6

SMILES: CSCC(NC(=O)OCc1ccccc1)C(=O)O (stereo not drawn)
- survivor count [5]: 3 of 6

SMILES: O=C1C(=O)c2ccccc2C(O)=C1[N+](=O)[O-]
- survivor count [8]: 3 of 6
- survivor count [2]: 2 of 6

SMILES: CCc1ccc(Nc2c3ccccc3nc3ccccc23)cc1
- T/C [9]: 131 % of control [5 of 6 alive]
- survivor count [8]: 6 of 6
- survivor count [2]: 1 of 6

SMILES: CC(C)(C)C1CC(C(F)(F)F)(C(F)(F)F)OS(=O)O1 (stereo not drawn)
- survivor count (T/C endpoint: mean survival time, dose: 100.0 mg/kg/injection, schedule: Q04DX003 (ip), vehicle: saline with Tween-80): 6 of 6
- survivor count [4]: 1 of 6
- survivor count [5]: 0 of 6

SMILES: O=C1CCC/C1=C/c1ccco1
- survivor count [8]: 3 of 3
- survivor count [2]: 3 of 3

SMILES: COc1cc(C(C)=O)cc([N+](=O)[O-])c1O
- survivor count [8]: 3 of 6

SMILES: CN(C)C(SCc1ccccc1)=[N+](C)C
- survivor count [3]: 0 of 3

SMILES: CCN(CC)CCNC(=O)C(O)C1CCCCC1 (stereo not drawn)
- survivor count (T/C endpoint: mean survival time, dose: 150.0 mg/kg/injection, schedule: Q01DX001 (ip), vehicle: other): 4 of 6
- survivor count (T/C endpoint: mean survival time, dose: 300.0 mg/kg/injection, schedule: Q01DX001 (ip), vehicle: other): 0 of 6

SMILES: OC(CBr)C(O)CBr (stereo not drawn)
- survivor count [8]: 3 of 6
- survivor count (T/C endpoint: mean survival time, dose: 200.0 mg/kg/injection, schedule: Q01DX009 (ip), vehicle: saline): 0 of 3
- survivor count (T/C endpoint: mean survival time, dose: 400.0 mg/kg/injection, schedule: Q01DX001 (ip), vehicle: saline with Tween-80): 0 of 6
- survivor count [5]: 3 of 6

SMILES: O=C(CC(=O)OCc1ccc([N+](=O)[O-])cc1)OCc1ccc([N+](=O)[O-])cc1
- survivor count (T/C endpoint: mean survival time, dose: 100.0 mg/kg/injection, schedule: Q01DX001 (ip), vehicle: Klucel (hydroxypropylcellulose) (HPC)): 3 of 3

SMILES: O=C(Nc1ccc(C2=NCCN2)cc1)c1ccc(C(=O)Nc2ccc(C3=NCCN3)cc2)c(Cl)c1
- T/C (T/C endpoint: mean survival time, dose: 3.12 mg/kg/injection, schedule: Q01DX009 (ip), vehicle: saline with Tween-80): 103, 106, 116 % of control (2×)
- T/C (T/C endpoint: mean survival time, dose: 3.13 mg/kg/injection, schedule: Q01DX009 (ip), vehicle: saline with Tween-80): 138 % of control
- T/C (T/C endpoint: mean survival time, dose: 6.25 mg/kg/injection, schedule: Q01DX009 (ip), vehicle: saline with Tween-80): 108, 116, 123, 125, 148 % of control
- T/C (T/C endpoint: mean survival time, dose: 10.0 mg/kg/injection, schedule: Q01DX009 (ip), vehicle: saline): 131 % of control
- survivor count (T/C endpoint: mean survival time, dose: 12.0 mg/kg/injection, schedule: Q01DX008 (iv), vehicle: water): 0 of 7
- T/C (T/C endpoint: mean survival time, dose: 12.5 mg/kg/injection, schedule: Q01DX009 (ip), vehicle: saline with Tween-80): 119, 120, 124, 132 % of control
- survivor count (T/C endpoint: mean survival time, dose: 18.0 mg/kg/injection, schedule: Q01DX008 (iv), vehicle: water): 0 of 7
- T/C (T/C endpoint: mean survival time, dose: 25.0 mg/kg/injection, schedule: Q01DX009 (ip), vehicle: saline with Tween-80): 146, 153 [5 of 6 alive], 154, 176 % of control
- T/C [10]: 198 and 250 % of control
- survivor count [10]: 0 of 6 and 2 of 6
- survivor count [9]: 0 of 6 and 2 of 3
- survivor count [8]: 1 of 3
- T/C (T/C endpoint: median survival time, dose: 20.0 mg/kg/injection, schedule: Q04DX003 (ip), vehicle: saline with Tween-80): 126 % of control [6 of 7 alive]
